Results taken from PubChem BioAssay AID2685 (National Center for Advancing Translational Sciences (NCATS), 2010).
Screen size: about 320,000 compounds; about 2,100 (0.66%) were called active. The shares of active, inactive and inconclusive entries below differ from those in the screen. Calls follow the shape of the dose curve; as a rule, active = well fitted inhibition curve with a large enough effect in the signal ratio, with a control signal flat (not every such curve was filed as active); inconclusive = small, poorly fitted or top-dose-only effect, or effect the other way, or a change in a side signal; inactive = flat fitted curve, though single readings scatter; the % refers to the signal ratio. Potencies of inconclusive entries are doubtful fits and often do not repeat.
% is scaled to controls: 0 for no effect and ±100 for the full control effect; potency is read from the fitted curve at half-maximal effect.

Assay: qHTS Assay for Lipid Storage Modulators in Drosophila S3 Cells
Settings: BODIPY lipid droplet fluorescence, 18-24 h, cells fed with added oleic acid; lipid storage change, negative = inhibition: at 46.1 µM (top of the series) unless noted
Summary of the method: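 Laser-scanning cytometry quantifies lipid droplet accumulation (500–530 nm total intensity; droplet/cell object ratio) in oleic acid-fed (400 uM added) Drosophila S3 cells treated with a concentration series. 20 uM Triacsin C defined 100% inhibition.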
For CCOc1ccc(C(C)=O)cc1COc1ccc(-c2nnco2)cc1, the Potency was active: 1.84 µM.
For CC(=O)Nc1ccc(S(=O)(=O)N[C@@H](C)C(=O)Nc2ccc(N3CCOCC3)cc2)cc1, the lipid storage change, negative = inhibition was inconclusive: -38.3% [at 0.0737 µM].
In the case of O=C(Nc1cccc([N+](=O)[O-])c1)c1cc(S(=O)(=O)N2CCOCC2)cs1, the lipid storage change, negative = inhibition is reported as inconclusive: -88.6%.
For CCCn1nnnc1NCc1ccccc1Cl, the lipid storage change, negative = inhibition was inconclusive: 29.5%.
With COc1ccccc1NC(=O)CNC(=O)Cn1cnc2sc(C)c(C)c2c1=O the Potency was inconclusive: 25.9 µM [activator, single point].
With O=C(c1cnn2c(C(F)(F)F)cc(-c3ccc4c(c3)OCO4)nc12)N1CCCCC1 the lipid storage change, negative = inhibition was inconclusive: 45.9%.
In the case of COc1ccc(S(=O)(=O)N2CCOCC2)cc1Br, the lipid storage change, negative = inhibition is reported as inconclusive: -9.65%.
In the case of NS(=O)(=O)c1cc(C(=O)NC2CCSc3ccccc32)ccc1Cl (stereo not given), the Potency is reported as inconclusive: 0.291 µM [falling, full curve].
In the case of NNC(=O)COc1ccc(C2SCCS2)cc1, the lipid storage change, negative = inhibition is reported as inconclusive: 8.8%.
With CN(C)/C=N/NC(=O)C1Cc2c(ccc3ccccc23)O1 (stereo not given) the lipid storage change, negative = inhibition was inconclusive: 13.9%.
In the case of COc1ccc2sc(-c3ccc(N(C)C)cc3)c(-c3cnc(OC)nc3)c2c1, the lipid storage change, negative = inhibition is reported as inconclusive: 13.2%.
With Cc1cc(C)c(S(=O)(=O)NCCn2ccc3ccccc32)c(C)c1 the lipid storage change, negative = inhibition was inconclusive: -77.4%.
With Cn1c(O)c(N=Nc2ccccc2)c2ccccc21 the lipid storage change, negative = inhibition was inconclusive: 6.67%.
In the case of CC(C)CN(C(=O)CN1CCCCCC1)c1c(N)n(CC(C)C)c(=O)[nH]c1=O, the lipid storage change, negative = inhibition is reported as inconclusive: 5.42%.
In the case of Cc1c(C(=O)O)nnn1-c1nonc1N, the lipid storage change, negative = inhibition is reported as inconclusive: 3.96%.
For O=C(OCC#CCSc1nnc(-c2cccc3ccccc23)o1)c1cccs1, the lipid storage change, negative = inhibition was inconclusive: 2.73%.
With Cc1cccc(C)c1NC(=O)COc1ccc2c(C)c(Cc3ccccc3)c(=O)oc2c1C the Potency was inconclusive: 5.17 µM [falling, partial curve, poor fit].
For COc1ccc(NC(=O)COc2ccc3c(c2)OCO3)cc1, the lipid storage change, negative = inhibition was inconclusive: 24.8%.
With O=C(O)c1nn(-c2ccccc2-c2n[nH]c(=O)[nH]c2=O)c(=O)[nH]c1=O the Potency was inconclusive: 0.651 µM [falling, single point].
In the case of CC1(C)CC(C(CC(=O)N2CCCC2)Cc2ccccc2)CCO1 (stereo not given), the lipid storage change, negative = inhibition is reported as inconclusive: -3.06%.
In the case of CCCc1nn(C)c(C(=O)Nc2cccc(C)c2)c1Cl, the Potency is reported as inconclusive: 1.64 µM [activator, partial curve, poor fit].
With C#CCSc1nc2[nH]ncc2c(=O)[nH]1 the lipid storage change, negative = inhibition was inconclusive: 9.42%.
For COC(=O)c1onc(-c2c(Cl)cccc2Cl)c1C(=O)OC, the lipid storage change, negative = inhibition was inconclusive: 7.73%.
For c1ccc(OCCN2CCN(C(c3ccccc3)c3ccccc3)CC2)cc1, the lipid storage change, negative = inhibition was inconclusive: 53.4%.
With O=C(CN1C(=O)NC2(CCCCC2)C1=O)N(Cc1ccco1)Cc1cccs1 the lipid storage change, negative = inhibition was “inconclusive”.
For COc1cccc(NC(=O)CN(C)C(=O)c2cccnc2Nc2cccc(C(F)(F)F)c2)c1, the lipid storage change, negative = inhibition was inconclusive: -2.09%.
For O=C(CN1CCCCC1)Nc1ccc(NC(=O)c2ccccc2Cl)cc1Cl, the lipid storage change, negative = inhibition was inconclusive: 0.145%.
With C/C(=N\NC(=O)c1nnn(-c2nonc2N)c1CN(C)c1ccccc1)c1cccc(O)c1 the Potency was inconclusive: 29.1 µM [falling, single point].
For Cc1ccc(NC(=O)CN(C)C(=O)CSc2ncc(C(F)(F)F)cc2Cl)cc1, the Potency was inconclusive: 16.4 µM [activator, single point].
With Cc1nc(-c2ccc(S(=O)(=O)NCC3CCN(C(=O)OC(C)(C)C)CC3)s2)cs1 the lipid storage change, negative = inhibition was inconclusive: 6.78%.
With CCc1ccccc1-n1c(SCC(=O)c2c(N)n(C3CC3)c(=O)[nH]c2=O)nnc1N1CCOCC1 the lipid storage change, negative = inhibition was inconclusive: 8.66%.
In the case of CCc1ccc(/C=N/NC(=O)Cc2ccc(OC)c(OC)c2)s1, the lipid storage change, negative = inhibition is reported as inconclusive: -8.89%.
With CC12CCC(c3c1nc1ccccc1[n+]3[O-])C2(C)C (stereo not given) the lipid storage change, negative = inhibition was inconclusive: -9.74%.
In the case of Cc1cc(C)c(S(=O)(=O)NCCc2cc3ccc(C)c(C)c3[nH]c2=O)c(C)c1, the lipid storage change, negative = inhibition is reported as inconclusive: -100%.
In the case of COC(=O)c1ccc(NC(=O)Cn2nc(-c3ccncc3)nc2SCC(=O)Nc2nccs2)cc1, the Potency is reported as inconclusive: 0.0326 µM [activator, full curve].
For O=C(CCn1c(=O)oc2ccccc21)NCCN1CCc2ccccc2C1, the lipid storage change, negative = inhibition was inconclusive: 11.2%.
With Cc1cccc(C(=O)NC(=S)N2CCN(C(=S)NC(=O)c3cccc(C)c3)CC2)c1 the Potency was inconclusive: 14.6 µM [activator, partial curve].
For O=C(OCc1ccc2c(c1)OCO2)c1ccc(S(=O)(=O)N2CCCCC2)cc1, the lipid storage change, negative = inhibition was inconclusive: -20%.
With O=C(Oc1cccc(C(=S)N2CCOCC2)c1)c1ccccc1 the lipid storage change, negative = inhibition was inconclusive: 7.02%.
With CCOc1ccccc1NC(=O)c1cnccn1 the lipid storage change, negative = inhibition was inconclusive: -0.8%.
With CCOc1ccccc1N=Cc1c(O)n(C)c(=O)n(C)c1=O the lipid storage change, negative = inhibition was inconclusive: 412%.
With CC(C)Oc1cccc(-c2nnc(SCC(=O)Nc3ccc4c(c3)OCCO4)n2N)c1 the lipid storage change, negative = inhibition was inconclusive: -21.1%.
With COc1ccccc1-n1cnnc1SCC(=O)Nc1cccc(S(N)(=O)=O)c1 the Potency was inconclusive: 29.1 µM [activator, single point].
In the case of C=CCn1c(-c2cccc(S(=O)(=O)N(CC)CC)c2)n[nH]c1=S, the Potency is reported as inconclusive: 0.731 µM [activator, full curve, poor fit].
For CCOc1ccc2nc(N(CCCN(C)C)C(=O)c3ccc(S(=O)(=O)N4CCc5ccccc5C4)cc3)sc2c1, the Potency was inconclusive: 29.1 µM [activator, single point].
With O=S1(=O)CC2N=C(N(Cc3c(F)cccc3Cl)c3ccccc3F)SC2C1 (stereo not given) the lipid storage change, negative = inhibition was inconclusive: -102%.
For COCC(C)NC(=O)c1ccc2c(c1)S(=O)(=O)c1ccccc1C2=O (stereo not given), the Potency was inconclusive: 11.6 µM [falling, partial curve, poor fit].
For Cc1cc(C)cc(C(=O)Nc2ccncc2)c1, the lipid storage change, negative = inhibition was inconclusive: 23.5%.
With Cn1cc(CC(=O)N2CCN(c3ccccc3F)CC2)c2ccccc21 the Potency was inconclusive: 0.461 µM [activator, full curve, poor fit].
With Cc1ccc(N/C=C/C(=O)c2cccs2)cc1C the Potency was inconclusive: 2.91 µM [activator, partial curve, poor fit].
In the case of CCOC(=O)COn1c(=O)c[n+]([O-])c2ccccc21, the lipid storage change, negative = inhibition is reported as inconclusive: 5.99%.
For NNC(=O)CNS(=O)(=O)c1ccc([N+](=O)[O-])cc1, the Potency was inconclusive: 0.651 µM [activator, full curve, poor fit].
In the case of C=CCn1c(CCNC(=O)c2ccccc2F)nnc1SCC(=O)Nc1ccccc1F, the Potency is reported as inconclusive: 29.1 µM [activator, single point].
In the case of Cc1ccc(C(=O)Nc2ccccc2C(N)=O)o1, the lipid storage change, negative = inhibition is reported as inconclusive: 21.8%.
For COc1ccc(/C=C/C(=O)N2CCN(c3ccccn3)CC2)c2ccccc12, the lipid storage change, negative = inhibition was inconclusive: 11.1%.
For CC(C)C(=O)OCC(=O)Nc1ccc(N=Nc2ccccc2)cc1, the lipid storage change, negative = inhibition was inconclusive: -0.8%.
In the case of NS(=O)(=O)c1ccc(CCNC(=O)CNC(=O)c2ccccc2Br)cc1, the lipid storage change, negative = inhibition is reported as inconclusive: -48.7%.
With COc1cccc(CNC(=O)COc2cc3c(c4oc(=O)cc(C)c24)CCC(C)(C)O3)c1 the Potency was active: 1.3 µM.
For C=CCOc1nc2c(c(=O)n(C)c(=O)n2C)n1Cc1ccccc1, the Potency was inconclusive: 0.146 µM [activator, full curve, poor fit].
In the case of O=C(Cn1cc2c(n1)CCCC2)N1CCOCC1, the lipid storage change, negative = inhibition is reported as inconclusive: -18.1%.
For COc1cc(NS(C)(=O)=O)c(OC)cc1NC(=O)c1cccc(F)c1, the Potency was inconclusive: 1.46 µM [activator, partial curve].
In the case of CCOC(=O)C1=C(c2ccccc2)ON(C)C1c1ccccc1 (stereo not given), the lipid storage change, negative = inhibition is reported as inconclusive: 45.6%.
In the case of CS(=O)(=O)N(C(=O)NC(=O)NC12CC3CC(CC(C3)C1)C2)C1CCCCC1, the “lipid storage change, negative = inhibition” value is reported as inactive: 2.98%.
With Cc1ccc(NC2=C(Cl)C(=O)OC2OC(=O)c2ccco2)cc1 (stereo not given) the lipid storage change, negative = inhibition was inconclusive: -4.55%.
In the case of CCCS(=O)(=O)c1cn2cccc(N)c2c1S(=O)(=O)CCC, the Potency is reported as inconclusive: 9.2 µM [activator, partial curve].
For CCOC(=O)c1c(CNCCN(CC)CC)n(C)c2cc(Br)c(OC)cc12, the Potency was inconclusive: 20.6 µM [activator, single point].
With COCCNC(=O)c1n[nH]c2ccccc12 the Potency was inconclusive: 0.411 µM [falling, partial curve, poor fit].
In the case of Cc1cc(Cl)ccc1NC(=O)CN1C(=O)NC2(CCCC2)C1=O, the lipid storage change, negative = inhibition is reported as inconclusive: 24.8%.
For CC1OC(OC2C(OC3C(O[C@H]4CC[C@]5(C)C6C=C[C@]78OC[C@@]9(CC[C@@H](C)[C@H](C)C97)[C@H](O)C[C@@]8(C)[C@]6(C)CC[C@H]5C4(C)C)OC(C)C(O)C3O)OC(CO)C(O)C2O)C(O)C(O)C1O (stereo not given in full), the lipid storage change, negative = inhibition was inconclusive: -68.4%.
With Cc1nnc2n(Cc3ccccc3)c(=O)c3c4c(sc3n12)CN(Cc1ccccc1)CC4 the lipid storage change, negative = inhibition was inconclusive: -17.4%.
With CC(C)N(Cc1ccccc1)C(=S)Nc1cccnc1 the lipid storage change, negative = inhibition was inconclusive: 77.2%.
In the case of OCCc1ccc(O)c(-n2nc3ccccc3n2)c1, the lipid storage change, negative = inhibition is reported as inconclusive: 123%.
In the case of O=C(OCc1nc2ccccc2[n+]([O-])c1C(=O)c1ccccc1)c1cccs1, the Potency is reported as inconclusive: 29.1 µM [activator, single point].
With Fc1ccccc1-c1nc(NCCCN2CCOCC2)c2ccccc2n1 the lipid storage change, negative = inhibition was inconclusive: 17.8%.
With O=C(CN1C(=O)NC(c2ccccc2)(c2ccccc2)C1=O)NC1CCS(=O)(=O)C1 (stereo not given) the lipid storage change, negative = inhibition was inconclusive: 7.58%.
